## Library screen at single concentrations

Sequences of proteins named here, by UniProt entry; tags and fusion partners are left off. Residues count along the entry.
UniProt P9WPC5, whole entry: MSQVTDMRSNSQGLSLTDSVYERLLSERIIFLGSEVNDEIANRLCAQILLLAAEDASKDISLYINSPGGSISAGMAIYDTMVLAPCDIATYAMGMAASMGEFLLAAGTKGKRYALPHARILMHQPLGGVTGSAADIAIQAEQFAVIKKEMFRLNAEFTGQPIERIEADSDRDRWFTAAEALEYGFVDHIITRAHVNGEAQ
UniProt P9WPC3, whole entry partner: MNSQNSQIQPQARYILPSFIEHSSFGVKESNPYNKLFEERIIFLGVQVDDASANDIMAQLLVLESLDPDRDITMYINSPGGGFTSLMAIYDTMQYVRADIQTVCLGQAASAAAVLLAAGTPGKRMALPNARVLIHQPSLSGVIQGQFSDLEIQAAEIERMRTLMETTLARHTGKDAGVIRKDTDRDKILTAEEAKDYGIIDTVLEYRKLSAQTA
UniProt P9WNZ1, whole entry: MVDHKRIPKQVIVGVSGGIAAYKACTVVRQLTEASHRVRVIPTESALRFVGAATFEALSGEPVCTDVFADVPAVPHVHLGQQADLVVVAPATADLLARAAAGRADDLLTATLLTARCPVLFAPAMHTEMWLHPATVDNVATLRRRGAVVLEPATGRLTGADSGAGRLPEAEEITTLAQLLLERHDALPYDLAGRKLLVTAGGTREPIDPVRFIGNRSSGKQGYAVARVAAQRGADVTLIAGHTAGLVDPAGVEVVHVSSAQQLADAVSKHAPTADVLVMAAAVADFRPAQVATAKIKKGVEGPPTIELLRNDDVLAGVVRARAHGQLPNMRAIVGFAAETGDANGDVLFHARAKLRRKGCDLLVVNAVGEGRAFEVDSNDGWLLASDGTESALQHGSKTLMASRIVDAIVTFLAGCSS
UniProt Q8IDJ8, 1-583: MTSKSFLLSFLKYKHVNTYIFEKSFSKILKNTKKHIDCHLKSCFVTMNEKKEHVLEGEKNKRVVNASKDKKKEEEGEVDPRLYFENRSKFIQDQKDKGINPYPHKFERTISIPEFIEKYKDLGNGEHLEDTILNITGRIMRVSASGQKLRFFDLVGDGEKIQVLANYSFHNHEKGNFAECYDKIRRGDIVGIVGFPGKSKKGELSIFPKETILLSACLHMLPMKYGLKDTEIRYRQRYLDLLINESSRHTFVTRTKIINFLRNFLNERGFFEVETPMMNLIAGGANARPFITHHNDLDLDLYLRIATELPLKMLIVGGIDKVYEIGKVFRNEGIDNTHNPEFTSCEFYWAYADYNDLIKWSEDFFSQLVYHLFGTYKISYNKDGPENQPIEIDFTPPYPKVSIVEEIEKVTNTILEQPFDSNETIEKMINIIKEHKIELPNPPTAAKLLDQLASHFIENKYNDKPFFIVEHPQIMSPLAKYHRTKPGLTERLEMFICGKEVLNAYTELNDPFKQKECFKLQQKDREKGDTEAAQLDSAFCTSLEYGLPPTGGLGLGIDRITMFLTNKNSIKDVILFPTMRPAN

Values are the deposited “Percent Effect”, in %.
The record does not define 0% and 100%; most values in the screen are far below 50% and negative numbers occur (in some assays of this library far below -100).
Compounds were drawn at random from those tested, without regard to their results.

ClpP1P2: 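ClpP1P2, Mycobacterium tuberculosis (UniProt P9WPC5 and UniProt P9WPC3). Protease assay of ClpP1P2, read by the AMC dye that it sets free. Concentration: 50 µM. Higher reads as stronger inhibition, judged from the few compounds that gave an IC50. Most other retested compounds had strongly negative values. Of about 69,000 compounds tested this way, about 10 (0.015%) reached 50% or more in at least one test.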
CoaBC: 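Enzyme assay of CoaBC with a phosphate dye (Biomol Green) read at 650 nm. Target: Coenzyme A biosynthesis protein CoaBC, Mycobacterium tuberculosis (UniProt P9WNZ1). Compounds at 30 µM. Higher reads as stronger inhibition, judged from the few compounds that gave an IC50. Most strong results did not repeat in a second test. Of about 67,000 compounds tested this way, about 40 (0.06%) reached 50% or more in at least one test.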
PfKRS1: 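Lysine-tRNA ligase, Plasmodium falciparum 3D7 (UniProt Q8IDJ8). Enzyme assay of the cytosolic lysyl-tRNA synthetase in 384-well plates, read by luminescence. Tested at 30 µM. Higher reads as stronger inhibition, judged from the few compounds that gave an IC50. About 69,000 compounds were tested under these conditions; 0.071% (about 49) showed 50% or more at least once.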

* COc1ncccc1CNC1CCc2c(ccc(=O)n2C)C1 (stereo unspecified) : ClpP1P2: 2.81%; CoaBC: 2.351%; PfKRS1: 0.3263%
* COCCC(=O)N1CCN(CCN(C)C)c2ncccc2C1 : ClpP1P2: -21.54%; CoaBC: 2.727%; PfKRS1: 1.773%
* COc1c(CNC2CCOc3c(Cl)cccc32)c(C)nn1C (stereo unspecified) : ClpP1P2: -2.419%; CoaBC: -1.381%; PfKRS1: -3.027%
* C[C@@H]1CN(C(=O)CCCN2CCCC2)CC[C@@]1(O)C1CCOCC1 : ClpP1P2: -15.9%; CoaBC: 12.31%; PfKRS1: -0.3481%
* O=C(c1nnn(-c2ccc(C(F)(F)F)cc2)n1)N1CC(O)C1 : ClpP1P2: -3.394%; CoaBC: 5.285%; PfKRS1: 4.153%
* O=C(NC1CC1)[C@@H]1C[C@@H]2CCN(Cc3ccccc3)C[C@H]2O1 : ClpP1P2: -4.858%; CoaBC: 5.315%; PfKRS1: 1.415%
* CC(C)(C)[S+]([O-])CCNC(=O)c1ccc(Cl)c2cccnc12 (stereo unspecified) : ClpP1P2: 1.208%; CoaBC: 8.8%; PfKRS1: 2.02%
* O=C1CCCN1Cc1ncn2c1CN(C(=O)C1CC=CC1)CCC2 : ClpP1P2: 5.509%; CoaBC: 15.31%; PfKRS1: 0.1158%
* Cc1ccccc1-c1noc(CN2CCc3nn(C)c(=O)cc3C2)n1 : ClpP1P2: -49.18%; CoaBC: -19.32%; PfKRS1: 6.593%
* COc1cc(NC(=O)c2ccccc2F)c(C(=O)N(C)C)cc1OC : ClpP1P2: -2.751%; CoaBC: -15.91%; PfKRS1: 0.1313%
* CNC(=O)N(Cc1c(F)cccc1F)C1CCCC1 : ClpP1P2: 1.144%; CoaBC: 0.3628%; PfKRS1: 0.09991%
* NC(=O)N1CCC(C(=O)NC2CCc3nccn3C2)CC1 (stereo unspecified) : ClpP1P2: -3.9%; CoaBC: 3.201%; PfKRS1: 5.845%
* CCN(Cc1ccoc1)C(=O)C1CN(C(=O)OC(C)(C)C)C1 : ClpP1P2: -0.5867%; CoaBC: 1.378%; PfKRS1: 1.433%
* CC(C)c1nc(CN(C)Cc2ccc(O)c(C(=O)O)c2)cs1 : ClpP1P2: -8.585%; CoaBC: -1.533%; PfKRS1: 5.563%
* COCCc1noc(CN(C)C(=O)C2COc3ccccc3C2)n1 (stereo unspecified) : ClpP1P2: -8.706%; CoaBC: 9.288%; PfKRS1: 3.714%
* OCCNc1cc(-c2nccnc2N2CCCC2)c2cc[nH]c2n1 : ClpP1P2: -26.21%; CoaBC: 8.754%; PfKRS1: 9.457%
* Cc1cnc(N2CCCC3(CCCN(C)C3)C2)nc1 (stereo unspecified) : ClpP1P2: -5.372%; CoaBC: -0.2151%; PfKRS1: -0.4002%
* CN(C)C(=O)CN1CCc2ncnc(C3CC3)c2CC1 : ClpP1P2: -6.105%; CoaBC: 1.238%; PfKRS1: 1.888%
* COc1ccc2c(CN3CCCN(Cc4ccncc4)CC3)n[nH]c2c1 : ClpP1P2: 7.807%; CoaBC: 5.976%; PfKRS1: 4.019%
* Cc1ccc(CN2CCN(CC(=O)N(C)C)[C@@H]3CS(=O)(=O)C[C@@H]32)cc1C : ClpP1P2: 8.461%; CoaBC: 4.627%; PfKRS1: -0.02224%
* Cc1ccc(OCC(=O)N(C)Cc2cccc(F)c2)cn1 : ClpP1P2: 6.103%; CoaBC: 4.519%; PfKRS1: 5.836%
* Cc1cc(C(=O)NCC2Cn3nnc(C)c3CO2)no1 (stereo unspecified) : ClpP1P2: -7.017%; CoaBC: -6.688%; PfKRS1: 6.54%
* Cc1ccc(C(=O)NCCCS(C)(=O)=O)c(=O)[nH]1 : ClpP1P2: -3.265%; CoaBC: 3.831%; PfKRS1: 0.6187%
* COc1cc(N2CC3(CCN(c4ncccn4)C3)C2)ncn1 : ClpP1P2: 5.387%; CoaBC: 0.2105%; PfKRS1: 0.815%
* COc1cc(N2CCC3(CC2)CN(C)C(=O)CO3)ncn1 : ClpP1P2: -12.91%; CoaBC: -1.091%; PfKRS1: 2.651%
* Cc1ccccc1CN1CCC2(CCCN2C(=O)C(C)C)CC1 : ClpP1P2: 5.484%; CoaBC: 3.99%; PfKRS1: 5.059%

2 of the entries, repeated:

compound	ClpP1P2	CoaBC	PfKRS1
Cc1ccccc1CN1CCC2(CCCN2C(=O)C(C)C)CC1	5.484	3.99	5.059
Cc1ccc(OCC(=O)N(C)Cc2cccc(F)c2)cn1	6.103	4.519	5.836

Measurements from “University of Dundee, Small-Polar-MMV Screening Library” (2021), ChEMBL document CHEMBL3988442.